Results deposited as PubChem BioAssay AID1159584 (Peter MacCallum Cancer Centre, 2016).

Test: 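Genes that CDH1-null MCF10A cells selectively depend on to survive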 (primary screen)
Cell system: human MCF10A breast epithelial cells, parental and CDH1-null
Reagent: siRNA against human genes
Measured: 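ATP luminescence (CellTiter-Glo) viability per line relative to mean mock wells over all plates, and the ratio of CDH1-null to parental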
Reading the numbers: CDH1-null / parental viability ratio: higher = CDH1-null cells survive relatively better than parental; CDH1-null viability vs mock: higher = more viable CDH1-null cells; parental viability vs mock: higher = more viable parental cells
Shown is a random part of about 18,000 deposited reagents. Reagents against one gene are numbered here. Not given: the amount of reagent, the time to read-out.

The opening 4 entries as a preview:
| target gene | reagent no. | CDH1-null / parental viability ratio | CDH1-null viability vs mock (fraction of mock) | parental viability vs mock (fraction of mock) |
| --- | --- | --- | --- | --- |
| BCAS3 (BCAS3 microtubule associated cell migration factor) | 1 | 1.09 | 0.94 | 0.86 |
| OR52H1 (olfactory receptor family 52 subfamily H member 1) | 1 | 1.31 | 0.68 | 0.52 |
| ZDHHC14 (zDHHC palmitoyltransferase 14) | 1 | 1.08 | 1.1 | 1.02 |
| MTPN (myotrophin) | 1 | 0.72 | 0.72 | 1 |

Results, from the start:
| target gene | reagent no. | CDH1-null / parental viability ratio | CDH1-null viability vs mock (fraction of mock) | parental viability vs mock (fraction of mock) |
| --- | --- | --- | --- | --- |
| BCAS3 (BCAS3 microtubule associated cell migration factor) | 1 | 1.09 | 0.94 | 0.86 |
| OR52H1 (olfactory receptor family 52 subfamily H member 1) | 1 | 1.31 | 0.68 | 0.52 |
| ZDHHC14 (zDHHC palmitoyltransferase 14) | 1 | 1.08 | 1.1 | 1.02 |
| MTPN (myotrophin) | 1 | 0.72 | 0.72 | 1 |
| GFRAL (GDNF family receptor alpha like) | 1 | 0.9 | 0.69 | 0.77 |
| WDR90 (WD repeat domain 90) | 1 | 0.92 | 0.68 | 0.74 |
| BCR (BCR activator of RhoGEF and GTPase) | 1 | 0.97 | 0.66 | 0.68 |
| CAPN3 (calpain 3) | 1 | 1 | 0.38 | 0.38 |
| SLC26A7 | 1 | 1.06 | 0.88 | 0.83 |
| CNTROB | 1 | 1.15 | 0.84 | 0.73 |
| P2RY14 (purinergic receptor P2Y14) | 1 | 1.19 | 0.86 | 0.72 |
| UQCC1 (ubiquinol-cytochrome c reductase complex assembly factor 1) | 1 | 1.42 | 0.64 | 0.45 |
| ZNF684 (zinc finger protein 684) | 1 | 0.95 | 0.21 | 0.22 |
| SECTM1 (secreted and transmembrane 1) | 1 | 0.93 | 0.53 | 0.57 |
| METTL21C (methyltransferase 21C, AARS1 lysine) | 1 | 0.81 | 0.73 | 0.9 |
| RBMX (RNA binding motif protein X-linked) | 1 | 0.86 | 0.65 | 0.76 |
| RNF113A (ring finger protein 113A) | 1 | 0.91 | 0.74 | 0.81 |
| CCNT2 (cyclin T2) | 1 | 0.97 | 0.67 | 0.69 |
| UGT1A6 (UDP glucuronosyltransferase family 1 member A6) | 1 | 0.92 | 0.9 | 0.98 |
| CAPZA2 (capping actin protein of muscle Z-line subunit alpha 2) | 1 | 1.06 | 1.12 | 1.06 |
| C1QTNF2 (C1q and TNF related 2) | 1 | 0.96 | 0.54 | 0.56 |
| TBC1D8B (TBC1 domain family member 8B) | 1 | 0.96 | 0.92 | 0.96 |
| ALDH1B1 (aldehyde dehydrogenase 1 family member B1) | 1 | 1.1 | 1.06 | 0.96 |
| EID1 (EP300 interacting inhibitor of differentiation 1) | 1 | 0.84 | 0.64 | 0.76 |
| ARHGAP28 (Rho GTPase activating protein 28) | 1 | 1.62 | 0.91 | 0.56 |
| RXRA (retinoid X receptor alpha) | 1 | 0.68 | 0.51 | 0.75 |
| HHEX (hematopoietically expressed homeobox) | 1 | 0.68 | 0.57 | 0.84 |
| HOMEZ (homeobox and leucine zipper encoding) | 1 | 0.86 | 0.55 | 0.64 |
| CDH1 (cadherin 1) | 1 | 1.11 | 0.89 | 0.8 |
| ZBTB18 (zinc finger and BTB domain containing 18) | 1 | 1.01 | 0.85 | 0.84 |
| TTC23L (tetratricopeptide repeat domain 23 like) | 1 | 1.17 | 0.61 | 0.52 |
| SMAD9 (SMAD family member 9) | 1 | 0.95 | 0.82 | 0.86 |
| NCR2 (natural cytotoxicity triggering receptor 2) | 1 | 1.09 | 0.96 | 0.88 |
| SLC6A6 | 1 | 1.01 | 0.74 | 0.73 |
| FGR (FGR proto-oncogene, Src family tyrosine kinase) | 1 | 0.76 | 0.56 | 0.74 |
| DLK2 (delta like non-canonical Notch ligand 2) | 1 | 1.2 | 1.06 | 0.88 |
| TMPRSS6 (transmembrane serine protease 6) | 1 | 1.06 | 1 | 0.94 |
| TBC1D5 (TBC1 domain family member 5) | 1 | 1.19 | 0.38 | 0.32 |
| STBD1 (starch binding domain 1) | 1 | 1.26 | 0.83 | 0.66 |
| APAF1 (apoptotic peptidase activating factor 1) | 1 | 1.76 | 0.86 | 0.49 |
| LPL (lipoprotein lipase) | 1 | 0.74 | 0.34 | 0.46 |
| VPS35 (VPS35 retromer complex component) | 1 | 0.72 | 0.68 | 0.94 |
| OR10J5 (olfactory receptor family 10 subfamily J member 5) | 1 | 0.9 | 0.72 | 0.8 |
| FN3KRP (fructosamine 3 kinase related protein) | 1 | 0.74 | 0.55 | 0.74 |
| DALRD3 (DALR anticodon binding domain containing 3) | 1 | 0.75 | 0.38 | 0.51 |
| C12orf57 (chromosome 12 open reading frame 57) | 1 | 1.23 | 1.18 | 0.96 |
| ABHD12 (abhydrolase domain containing 12, lysophospholipase) | 1 | 1.1 | 0.97 | 0.88 |
| AFAP1L2 (actin filament associated protein 1 like 2) | 1 | 1.09 | 0.76 | 0.7 |
| C1orf54 (chromosome 1 open reading frame 54) | 1 | 1.15 | 0.94 | 0.82 |
| CCDC149 (coiled-coil domain containing 149) | 1 | 0.87 | 0.61 | 0.7 |
| GBA2 (glucosylceramidase beta 2) | 1 | 0.88 | 0.82 | 0.93 |
| SLC6A4 | 1 | 1.01 | 0.89 | 0.88 |
| STEEP1 (STING1 ER exit protein 1) | 1 | 0.76 | 0.52 | 0.68 |
| RHOJ (ras homolog family member J) | 1 | 1.14 | 1.15 | 1.01 |
| FABP6 (fatty acid binding protein 6) | 1 | 0.95 | 0.88 | 0.93 |
| PHOSPHO1 (phosphoethanolamine/phosphocholine phosphatase 1) | 1 | 0.79 | 0.46 | 0.58 |
| JRKL (JRK like) | 1 | 1.05 | 0.98 | 0.93 |
| TMEM266 (transmembrane protein 266) | 1 | 0.91 | 0.8 | 0.88 |
| ZNF618 (zinc finger protein 618) | 1 | 1.07 | 0.97 | 0.91 |
| FOLR3 (folate receptor gamma) | 1 | 0.82 | 0.54 | 0.66 |
| C5orf24 (chromosome 5 open reading frame 24) | 1 | 1.06 | 0.84 | 0.79 |
| GGH (gamma-glutamyl hydrolase) | 1 | 1.2 | 0.95 | 0.79 |
| TM9SF2 (transmembrane 9 superfamily member 2) | 1 | 1.15 | 0.9 | 0.78 |
| IFNL2 (interferon lambda 2) | 1 | 1.1 | 0.8 | 0.73 |
| NDUFV1-DT (NDUFV1 divergent transcript) | 1 | 0.81 | 0.65 | 0.8 |
| PTPMT1 (protein tyrosine phosphatase mitochondrial 1) | 1 | 1.3 | 0.86 | 0.66 |
| ELK1 (ETS transcription factor ELK1) | 1 | 1.33 | 0.73 | 0.55 |
| IQSEC2 (IQ motif and Sec7 domain ArfGEF 2) | 1 | 0.59 | 0.48 | 0.81 |
| SGTB | 1 | 0.78 | 0.84 | 1.08 |
| RNF122 (ring finger protein 122) | 1 | 0.94 | 0.94 | 1 |
| TXNRD3 (thioredoxin reductase 3) | 1 | 1.01 | 1.2 | 1.19 |
| TXNRD3 (thioredoxin reductase 3) | 2 | 0.95 | 0.98 | 1.03 |
| LIAS (lipoic acid synthetase) | 1 | 0.92 | 0.83 | 0.9 |
| DEDD (death effector domain containing) | 1 | 1.17 | 1.01 | 0.86 |
| KRTAP5-11 (keratin associated protein 5-11) | 1 | 1.28 | 0.64 | 0.5 |
| DDX27 (DEAD-box helicase 27) | 1 | 0.83 | 0.6 | 0.72 |
| CCL24 (C-C motif chemokine ligand 24) | 1 | 1.47 | 0.59 | 0.4 |
| RASGRP1 (RAS guanyl releasing protein 1) | 1 | 0.99 | 1.07 | 1.08 |
| SHISA6 (shisa family member 6) | 1 | 0.81 | 0.7 | 0.86 |
| MYCT1 (MYC target 1) | 1 | 1.17 | 0.98 | 0.84 |
| CA7 (carbonic anhydrase 7) | 1 | 1.05 | 0.9 | 0.86 |
| PDGFA (platelet derived growth factor subunit A) | 1 | 1.02 | 0.84 | 0.82 |
| NLRP11 (NLR family pyrin domain containing 11) | 1 | 1.17 | 1.12 | 0.96 |
| HSD11B2 (hydroxysteroid 11-beta dehydrogenase 2) | 1 | 0.84 | 0.76 | 0.9 |
| NOA1 (nitric oxide associated 1) | 1 | 1.24 | 0.82 | 0.66 |
| ZC3H14 (zinc finger CCCH-type containing 14) | 1 | 0.98 | 0.86 | 0.88 |
| MAP1LC3A (microtubule associated protein 1 light chain 3 alpha) | 1 | 1 | 0.88 | 0.88 |
